Results: article doi:10.1101/2025.01.08.631933
Results are given in words; binding and its absence hold for the method and conditions named. In cells and extracts the contact can be indirect. Some binding calls cover weakened binding; strength is not graded here.

Protein sequences, listed by entry. Tags and fused reporters are not part of them.
UniProt O95373: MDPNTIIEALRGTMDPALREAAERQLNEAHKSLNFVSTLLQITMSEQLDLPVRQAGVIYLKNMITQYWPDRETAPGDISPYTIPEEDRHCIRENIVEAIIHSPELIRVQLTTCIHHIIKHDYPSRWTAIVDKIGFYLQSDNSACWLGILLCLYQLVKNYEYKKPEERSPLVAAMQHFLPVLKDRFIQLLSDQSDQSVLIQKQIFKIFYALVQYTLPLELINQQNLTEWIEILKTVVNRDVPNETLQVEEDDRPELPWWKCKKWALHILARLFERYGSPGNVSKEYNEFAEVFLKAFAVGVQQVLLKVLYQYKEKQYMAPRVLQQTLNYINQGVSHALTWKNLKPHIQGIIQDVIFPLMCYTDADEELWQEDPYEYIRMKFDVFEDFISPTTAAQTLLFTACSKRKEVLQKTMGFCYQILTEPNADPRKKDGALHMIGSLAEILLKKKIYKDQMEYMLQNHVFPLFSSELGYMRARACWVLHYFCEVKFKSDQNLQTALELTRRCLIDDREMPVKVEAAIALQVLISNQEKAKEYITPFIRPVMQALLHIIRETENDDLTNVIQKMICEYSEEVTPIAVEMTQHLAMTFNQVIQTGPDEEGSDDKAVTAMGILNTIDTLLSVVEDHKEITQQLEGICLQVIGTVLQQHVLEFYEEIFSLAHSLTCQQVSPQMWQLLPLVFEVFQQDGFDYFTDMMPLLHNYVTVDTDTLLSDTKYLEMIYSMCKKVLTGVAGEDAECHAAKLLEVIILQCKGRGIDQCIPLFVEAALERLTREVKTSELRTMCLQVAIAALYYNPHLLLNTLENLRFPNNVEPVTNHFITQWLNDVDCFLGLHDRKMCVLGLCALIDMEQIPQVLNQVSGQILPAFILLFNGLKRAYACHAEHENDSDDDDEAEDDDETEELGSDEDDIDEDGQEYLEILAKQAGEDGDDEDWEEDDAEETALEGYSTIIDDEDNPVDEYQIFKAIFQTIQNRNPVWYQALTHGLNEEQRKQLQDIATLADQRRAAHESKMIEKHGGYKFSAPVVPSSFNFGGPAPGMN
UniProt P03107: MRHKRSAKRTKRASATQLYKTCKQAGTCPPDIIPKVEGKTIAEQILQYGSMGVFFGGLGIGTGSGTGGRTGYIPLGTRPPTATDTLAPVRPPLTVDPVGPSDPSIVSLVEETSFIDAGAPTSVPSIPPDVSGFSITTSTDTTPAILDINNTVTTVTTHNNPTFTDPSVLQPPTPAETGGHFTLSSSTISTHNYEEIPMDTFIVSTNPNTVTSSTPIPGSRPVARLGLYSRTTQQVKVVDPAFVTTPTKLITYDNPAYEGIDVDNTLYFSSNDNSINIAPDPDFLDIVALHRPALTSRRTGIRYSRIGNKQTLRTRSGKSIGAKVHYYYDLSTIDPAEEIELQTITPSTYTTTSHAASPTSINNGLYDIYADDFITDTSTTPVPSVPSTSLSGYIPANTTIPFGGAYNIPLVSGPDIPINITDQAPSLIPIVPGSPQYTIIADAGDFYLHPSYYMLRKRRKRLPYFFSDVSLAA

Tests used:
[1] = target: importin-7 (human (endogenous in HeLa)) (UniProt O95373); assay: co-IP
[2] = target: importin-7 (human (endogenous in HeLa)) (UniProt O95373); assay: co-IP; remark: listed apart in the source
[3] = target: importin-7 (human (endogenous in HeLa)) (UniProt O95373); assay: proximity ligation

3xFLAG-tagged HPV16 L2 (from UniProt P03107 1-473)
binding [1]: no binding (condition: at 8 and 16 hpi)
binding [2]: binds
binding [3]: binds
